Results are given in words; binding and its absence hold for the method and conditions named. Binding seen in cells or lysates may run through a third protein. Some entries that bind do so weakly or less than the wild type.

Sequences of proteins named here, by UniProt entry; tags and fusion partners are left off.
UniProt P11802: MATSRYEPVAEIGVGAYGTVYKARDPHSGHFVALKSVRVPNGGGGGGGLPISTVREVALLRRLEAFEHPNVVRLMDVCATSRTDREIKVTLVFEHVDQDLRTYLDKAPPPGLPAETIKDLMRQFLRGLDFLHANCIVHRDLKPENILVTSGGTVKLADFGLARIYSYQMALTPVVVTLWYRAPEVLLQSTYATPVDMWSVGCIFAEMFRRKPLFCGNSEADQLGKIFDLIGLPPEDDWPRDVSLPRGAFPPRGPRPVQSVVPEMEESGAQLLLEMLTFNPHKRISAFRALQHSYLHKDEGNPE
UniProt Q00534: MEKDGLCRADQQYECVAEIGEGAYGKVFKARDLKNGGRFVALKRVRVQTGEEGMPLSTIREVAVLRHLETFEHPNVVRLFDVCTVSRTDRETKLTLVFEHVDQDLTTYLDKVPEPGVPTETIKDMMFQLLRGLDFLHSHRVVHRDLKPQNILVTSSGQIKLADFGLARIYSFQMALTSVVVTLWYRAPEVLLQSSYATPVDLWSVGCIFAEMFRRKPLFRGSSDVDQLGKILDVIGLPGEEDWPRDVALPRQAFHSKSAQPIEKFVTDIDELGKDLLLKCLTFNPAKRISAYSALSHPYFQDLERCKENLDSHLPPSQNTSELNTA
UniProt P50613: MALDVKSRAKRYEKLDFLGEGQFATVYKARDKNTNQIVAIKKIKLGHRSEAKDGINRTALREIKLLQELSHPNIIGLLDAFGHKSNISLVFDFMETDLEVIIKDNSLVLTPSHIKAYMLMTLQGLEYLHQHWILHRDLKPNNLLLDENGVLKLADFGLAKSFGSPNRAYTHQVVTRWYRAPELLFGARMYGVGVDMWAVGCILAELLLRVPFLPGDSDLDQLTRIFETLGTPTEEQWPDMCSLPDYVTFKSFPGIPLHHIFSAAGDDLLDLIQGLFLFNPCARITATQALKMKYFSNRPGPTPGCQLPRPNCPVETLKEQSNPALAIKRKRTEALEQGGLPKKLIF
UniProt P46527: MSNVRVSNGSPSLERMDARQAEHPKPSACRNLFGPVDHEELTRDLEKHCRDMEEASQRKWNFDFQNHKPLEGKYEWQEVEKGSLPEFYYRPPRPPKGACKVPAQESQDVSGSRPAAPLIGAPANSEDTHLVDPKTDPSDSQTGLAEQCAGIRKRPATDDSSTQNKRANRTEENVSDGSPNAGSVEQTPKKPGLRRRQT

For test [1], the target named is CDK4 (human (endogenous in H358-PR250)) (UniProt P11802). The experiment in a line: co-IP; endogenous proteins in lysates of H358-PR250 cells (for CDK7 also parental H358 cells) treated with vehicle or 100 nM PD0325901 for 24 hours; Western blot. A general note: Immunoblotting shows a protein as a band on a membrane.
For test [2], the target named is CDK6 (human (endogenous in H358-PR250)) (UniProt Q00534). The description is as above.
For test [3], the target named is CDK7 (human (endogenous in H358 and H358-PR250)) (UniProt P50613). The description is as above.
Test [4] concerns the target CDK4 (human (endogenous in H358-PR250)) (UniProt P11802). The experiment in a line: condition: only cells treated with 100 nM PD0325901 for 24 hours; co-IP; endogenous proteins in lysates of H358-PR250 cells treated with 100 nM PD0325901 for 24 hours; Western blot.

p27^Kip1 (from UniProt P46527 1-198): the binding result is listed as “binds” in test [1], “binds” in test [2], “binds” in test [3] and “no binding” in test [4].

Source of the values: paper PMC6114982.
